From PubChem BioAssay AID186 (DTP/NCI, 2004)
Values are animals surviving of animals treated; these mice carried no tumour. Counts of survivors are from the toxicity check (mostly the fifth day) where no day follows; animals may have died later. Schedule codes are those of the source, read here as Q, the interval in days (D) or hours (H), X, the number of doses. Additions like (4×) stand for listed records that agree. Some doses were run more than once; the values are given in rising order.

Test system: B6D2F1 mice, nontumored toxicity test, survival
Experiment: NCI In Vivo Anticancer Drug Screen. Data for tumor model Nontumored Animals (Toxicity Test) in B6D2F1 (BDF1) mice
[1] = dose: 8.0 mg/kg/injection, schedule: Q03HX024 (ip), vehicle: saline
[2] = dose: 16.0 mg/kg/injection, schedule: Q03HX024 (ip), vehicle: saline
[3] = dose: 32.0 mg/kg/injection, schedule: Q01DX009 (ip), vehicle: saline
[4] = dose: 32.0 mg/kg/injection, schedule: Q03HX024 (ip), vehicle: saline
[5] = dose: 64.0 mg/kg/injection, schedule: Q01DX009 (ip), vehicle: saline
[6] = dose: 64.0 mg/kg/injection, schedule: Q01DX009 (oral), vehicle: saline
[7] = dose: 64.0 mg/kg/injection, schedule: Q01DX009 (sc), vehicle: saline
[8] = dose: 64.0 mg/kg/injection, schedule: Q03HX024 (ip), vehicle: saline
[9] = dose: 64.0 mg/kg/injection, schedule: Q04DX003 (ip), vehicle: saline
[10] = dose: 64.0 mg/kg/injection, schedule: Q08DX002 (ip), vehicle: saline
[11] = dose: 128.0 mg/kg/injection, schedule: Q01DX009 (oral), vehicle: saline
[12] = dose: 128.0 mg/kg/injection, schedule: Q01DX009 (sc), vehicle: saline
[13] = dose: 128.0 mg/kg/injection, schedule: Q03HX024 (ip), vehicle: saline
[14] = dose: 128.0 mg/kg/injection, schedule: Q04DX003 (ip), vehicle: saline
[15] = dose: 128.0 mg/kg/injection, schedule: Q08DX002 (ip), vehicle: saline
[16] = dose: 256.0 mg/kg/injection, schedule: Q04DX003 (ip), vehicle: saline
[17] = dose: 256.0 mg/kg/injection, schedule: Q08DX002 (ip), vehicle: saline
[18] = dose: 512.0 mg/kg/injection, schedule: Q04DX003 (ip), vehicle: saline
[19] = dose: 512.0 mg/kg/injection, schedule: Q08DX002 (ip), vehicle: saline
[20] = dose: 1024.0 mg/kg/injection, schedule: Q04DX003 (ip), vehicle: saline
[21] = dose: 1024.0 mg/kg/injection, schedule: Q08DX002 (ip), vehicle: saline

C[C@H](CN1CC(=O)NC(=O)C1)N1CC(=O)NC(=O)C1
survivor count (dose: 8.0 mg/kg/injection, schedule: Q01DX009 (ip), vehicle: saline): 7 of 7 and 8 of 8 | survivor count (dose: 8.0 mg/kg/injection, schedule: Q01DX009 (oral), vehicle: saline): 7 of 7 and 8 of 8 | survivor count (dose: 8.0 mg/kg/injection, schedule: Q01DX009 (sc), vehicle: saline): 8 of 8 | survivor count (dose: 8.0 mg/kg/injection, schedule: Q03HX016 (ip), vehicle: saline): 8 of 8 | survivor count [1]: 8 of 8 | survivor count (dose: 16.0 mg/kg/injection, schedule: Q01DX009 (ip), vehicle: saline): 8 of 8 | survivor count (dose: 16.0 mg/kg/injection, schedule: Q01DX009 (oral), vehicle: saline): 8 of 8 | survivor count (dose: 16.0 mg/kg/injection, schedule: Q01DX009 (sc), vehicle: saline): 8 of 8 | survivor count (dose: 16.0 mg/kg/injection, schedule: Q03HX016 (ip), vehicle: saline): 8 of 8 | survivor count [2]: 8 of 8 | survivor count [3]: 8 of 8 | survivor count (dose: 32.0 mg/kg/injection, schedule: Q01DX009 (oral), vehicle: saline): 7 of 8 and 8 of 8 | survivor count (dose: 32.0 mg/kg/injection, schedule: Q01DX009 (sc), vehicle: saline): 8 of 8 | survivor count (dose: 32.0 mg/kg/injection, schedule: Q03HX016 (ip), vehicle: saline): 7 of 8 | survivor count [4]: 8 of 8 | survivor count [5]: 8 of 8 | survivor count [6]: 8 of 8 | survivor count [7]: 8 of 8 | survivor count (dose: 64.0 mg/kg/injection, schedule: Q03HX016 (ip), vehicle: saline): 4 of 8 | survivor count [8]: 7 of 8 | survivor count [9]: 8 of 8 | survivor count (dose: 64.0 mg/kg/injection, schedule: Q04DX003 (sc), vehicle: saline): 8 of 8 | survivor count [10]: 8 of 8 | survivor count [11]: 8 of 8 | survivor count [12]: 8 of 8 | survivor count (dose: 128.0 mg/kg/injection, schedule: Q03HX016 (ip), vehicle: saline): 7 of 8 | survivor count [13]: 8 of 8 | survivor count [14]: 8 of 8 | survivor count (dose: 128.0 mg/kg/injection, schedule: Q04DX003 (sc), vehicle: saline): 8 of 8 | survivor count [15]: 8 of 8 | survivor count [16]: 8 of 8 | survivor count (dose: 256.0 mg/kg/injection, schedule: Q04DX003 (oral), vehicle: saline): 8 of 8 | survivor count (dose: 256.0 mg/kg/injection, schedule: Q04DX003 (sc), vehicle: saline): 8 of 8 | survivor count [17]: 8 of 8 | survivor count [18]: 8 of 8 | survivor count (dose: 512.0 mg/kg/injection, schedule: Q04DX003 (oral), vehicle: saline): 8 of 8 | survivor count (dose: 512.0 mg/kg/injection, schedule: Q04DX003 (sc), vehicle: saline): 8 of 8 | survivor count [19]: 8 of 8 | survivor count [20]: 8 of 8 | survivor count (dose: 1024.0 mg/kg/injection, schedule: Q04DX003 (oral), vehicle: saline): 8 of 8 | survivor count (dose: 1024.0 mg/kg/injection, schedule: Q04DX003 (sc), vehicle: saline): 8 of 8 | survivor count [21]: 8 of 8 | survivor count (dose: 2048.0 mg/kg/injection, schedule: Q04DX003 (oral), vehicle: saline): 7 of 8 and 8 of 8

O=C1OC(C(O)CO)C(O)=C1O (centres undefined)
survivor count (dose: 500.0 mg/kg/injection, schedule: Q01DX001 (ip), vehicle: water): 6 of 6 | survivor count (dose: 500.0 mg/kg/injection, schedule: Q01DX001 (oral), vehicle: water): 8 of 8 | survivor count (dose: 1000.0 mg/kg/injection, schedule: Q01DX001 (ip), vehicle: water): 6 of 6 | survivor count (dose: 1000.0 mg/kg/injection, schedule: Q01DX001 (oral), vehicle: water): 8 of 8 | survivor count (dose: 1200.0 mg/kg/injection, schedule: Q01DX001 (ip), vehicle: water): 3 of 6 | survivor count (dose: 1500.0 mg/kg/injection, schedule: Q01DX001 (ip), vehicle: water): 2 of 6 | survivor count (dose: 1500.0 mg/kg/injection, schedule: Q01DX001 (oral), vehicle: water): 8 of 8 | survivor count (dose: 2000.0 mg/kg/injection, schedule: Q01DX001 (ip), vehicle: water): 3 of 6 | survivor count (dose: 2000.0 mg/kg/injection, schedule: Q01DX001 (oral), vehicle: water): 8 of 8 | survivor count (dose: 3000.0 mg/kg/injection, schedule: Q01DX001 (ip), vehicle: water): 0 of 6 | survivor count (dose: 3000.0 mg/kg/injection, schedule: Q01DX001 (oral), vehicle: water): 7 of 8 | survivor count (dose: 4000.0 mg/kg/injection, schedule: Q01DX001 (oral), vehicle: water): 7 of 8

COc1cc2cc3c4cc(OC)c(OC)cc4cc[n+]3c(C)c2cc1OC
survivor count (dose: 8.0 mg/kg/injection, schedule: Q03HX008 (ip), vehicle: saline): 6 of 6 | survivor count [1]: 6 of 6 (2×) | survivor count (dose: 16.0 mg/kg/injection, schedule: Q03HX008 (ip), vehicle: saline): 6 of 6 (2×) | survivor count [2]: 6 of 6 (2×) | survivor count [3]: 6 of 6 | survivor count (dose: 32.0 mg/kg/injection, schedule: Q03HX008 (ip), vehicle: saline): 6 of 6 (2×) | survivor count [4]: 6 of 6 (2×) | survivor count (dose: 64.0 mg/kg/injection, schedule: Q01DX001 (ip), vehicle: saline): 6 of 6 | survivor count [5]: 6 of 6 (2×) | survivor count [6]: 5 of 6 | survivor count [7]: 6 of 6 (2×) | survivor count (dose: 64.0 mg/kg/injection, schedule: Q03HX008 (ip), vehicle: saline): 5 of 6 and 6 of 6 | survivor count [8]: 4 of 6 and 6 of 6 | survivor count [9]: 6 of 6 | survivor count [10]: 6 of 6 | survivor count (dose: 102.4 mg/kg/injection, schedule: Q01DX009 (ip), vehicle: saline): 1 of 6 | survivor count (dose: 102.4 mg/kg/injection, schedule: Q04DX003 (ip), vehicle: saline): 6 of 6 | survivor count (dose: 128.0 mg/kg/injection, schedule: Q01DX001 (ip), vehicle: saline): 6 of 6 (2×) | survivor count (dose: 128.0 mg/kg/injection, schedule: Q01DX009 (ip), vehicle: saline): 5 of 6 and 6 of 6 | survivor count [11]: 6 of 6 | survivor count [12]: 6 of 6 (2×) | survivor count (dose: 128.0 mg/kg/injection, schedule: Q03HX008 (ip), vehicle: saline): 6 of 6 (2×) | survivor count [13]: 6 of 6 (2×) | survivor count [14]: 6 of 6 (2×) | survivor count [15]: 6 of 6 (2×) | survivor count (dose: 204.8 mg/kg/injection, schedule: Q08DX002 (ip), vehicle: saline): 6 of 6 | survivor count (dose: 256.0 mg/kg/injection, schedule: Q01DX001 (ip), vehicle: saline): 5 of 6 and 6 of 6 | survivor count (dose: 256.0 mg/kg/injection, schedule: Q01DX009 (ip), vehicle: saline): 6 of 6 (2×) | survivor count (dose: 256.0 mg/kg/injection, schedule: Q01DX009 (oral), vehicle: saline): 6 of 6 | survivor count (dose: 256.0 mg/kg/injection, schedule: Q01DX009 (sc), vehicle: saline): 6 of 6 (2×) | survivor count (dose: 256.0 mg/kg/injection, schedule: Q03HX008 (ip), vehicle: saline): 3 of 6 | survivor count (dose: 256.0 mg/kg/injection, schedule: Q03HX024 (ip), vehicle: saline): 3 of 6 | survivor count [16]: 6 of 6 (2×) | survivor count [17]: 5 of 6 and 6 of 6 | survivor count (dose: 512.0 mg/kg/injection, schedule: Q01DX001 (ip), vehicle: saline): 6 of 6 (2×) | survivor count (dose: 512.0 mg/kg/injection, schedule: Q01DX009 (ip), vehicle: saline): 4 of 6 (2×) | survivor count (dose: 512.0 mg/kg/injection, schedule: Q01DX009 (oral), vehicle: saline): 6 of 6 | survivor count (dose: 512.0 mg/kg/injection, schedule: Q01DX009 (sc), vehicle: saline): 5 of 6 and 6 of 6 | survivor count [18]: 6 of 6 (2×) | survivor count [19]: 6 of 6 (2×) | survivor count (dose: 1024.0 mg/kg/injection, schedule: Q01DX001 (ip), vehicle: saline): 5 of 6 and 6 of 6 | survivor count (dose: 1024.0 mg/kg/injection, schedule: Q01DX009 (oral), vehicle: saline): 6 of 6 | survivor count (dose: 1024.0 mg/kg/injection, schedule: Q01DX009 (sc), vehicle: saline): 6 of 6 (2×) | survivor count [20]: 6 of 6 | survivor count [21]: 6 of 6 (2×) | survivor count (dose: 2048.0 mg/kg/injection, schedule: Q01DX001 (ip), vehicle: saline): 5 of 6 | survivor count (dose: 2048.0 mg/kg/injection, schedule: Q01DX009 (sc), vehicle: saline): 6 of 6 | survivor count (dose: 2048.0 mg/kg/injection, schedule: Q04DX003 (ip), vehicle: saline): 3 of 6

NCCCCNC(=O)c1csc(-c2csc(CCNC(=O)c3ccccc3)n2)n1
survivor count (dose: 6.25 mg/kg/injection, schedule: Q01DX011 (ip), vehicle: saline): 6 of 6 | survivor count (dose: 12.5 mg/kg/injection, schedule: Q01DX011 (ip), vehicle: saline): 6 of 6 | survivor count (dose: 25.0 mg/kg/injection, schedule: Q01DX011 (ip), vehicle: saline): 6 of 6 | survivor count (dose: 50.0 mg/kg/injection, schedule: Q01DX011 (ip), vehicle: saline): 6 of 6 | survivor count (dose: 100.0 mg/kg/injection, schedule: Q01DX011 (ip), vehicle: saline): 6 of 6 | survivor count (dose: 200.0 mg/kg/injection, schedule: Q01DX011 (ip), vehicle: saline): 6 of 6 | survivor count (dose: 400.0 mg/kg/injection, schedule: Q01DX011 (ip), vehicle: saline): 1 of 6

OC(CBr)C(O)C(O)C(O)CBr (centres undefined)
survivor count (dose: 120.0 mg/kg/injection, schedule: Q01DX009 (ip), vehicle: distilled water + Tween-80): 5 of 5 | survivor count (dose: 200.0 mg/kg/injection, schedule: Q01DX009 (ip), vehicle: distilled water + Tween-80): 5 of 5 | survivor count (dose: 333.0 mg/kg/injection, schedule: Q01DX009 (ip), vehicle: distilled water + Tween-80): 5 of 5 | survivor count (dose: 556.0 mg/kg/injection, schedule: Q01DX009 (ip), vehicle: distilled water + Tween-80): 3 of 4
